Experimental data from PubChem BioAssay AID1259354 (Paczesny and Yang Labs, IUPUI and University of Michigan, 2018).
The whole screen tested about 78,000 compounds, of which about 1,800 (2.3%) were called active. Inconclusive means that the source gave no clear call. Such entries were picked first, then a sample of the others. Cut-off read from the data, not from the text of the source: active = inhibition above about 30%; inconclusive = mostly about 10% to 28%; inactive = weaker than that.

By UniProt entry, the sequences of proteins in these tests, tags left out. Where a name states a change or a piece, a line headed by the entry shows the natural chain unless it says otherwise.
UniProt Q01638: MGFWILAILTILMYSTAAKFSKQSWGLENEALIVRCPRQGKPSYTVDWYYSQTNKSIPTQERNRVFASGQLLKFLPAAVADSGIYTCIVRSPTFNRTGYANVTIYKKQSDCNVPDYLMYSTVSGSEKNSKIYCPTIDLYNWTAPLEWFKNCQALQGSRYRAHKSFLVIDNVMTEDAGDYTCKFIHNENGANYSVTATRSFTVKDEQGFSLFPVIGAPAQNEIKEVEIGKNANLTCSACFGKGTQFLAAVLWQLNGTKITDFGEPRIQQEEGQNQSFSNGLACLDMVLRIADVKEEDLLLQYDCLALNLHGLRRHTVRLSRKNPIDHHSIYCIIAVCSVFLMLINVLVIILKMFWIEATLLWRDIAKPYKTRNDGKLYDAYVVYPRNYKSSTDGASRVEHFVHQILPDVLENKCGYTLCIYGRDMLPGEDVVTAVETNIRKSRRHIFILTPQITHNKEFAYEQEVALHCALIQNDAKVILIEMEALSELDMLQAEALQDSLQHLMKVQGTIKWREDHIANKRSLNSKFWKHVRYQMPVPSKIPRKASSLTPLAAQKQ

Target: Interleukin-1 receptor-like 1 (Homo sapiens) (UniProt Q01638)
Assay: blocks human ST2 binding to IL-33, primary screen, biochemical, AlphaLISA (AID 1259354)
Conditions: AlphaLISA ST2-Fc/biotin-IL-33 interaction, 1 h; at 17 µM, active compounds read high

SMILES	inhibition
CCCc1c(C)nc2ncnn2c1Sc1ccccc1NC(=O)Nc1ccc(Cl)cc1	inconclusive: 10%
CCC1CN(CCC(=O)N2CCN(Cc3nccn3C)CC2)Cc2cc(OC)ccc2O1 (centres undefined)	inconclusive: 12%
O=S(=O)(NCc1ccco1)c1ccccc1	inactive
C=CCOc1ccc(C2C(C(=O)OCC)=C(C)N=C3SCCC(=O)N32)cc1OC (centres undefined)	inactive
c1ccc(-c2csc(CN3CCCC(N4CCc5ccccc5C4)C3)n2)cc1 (centres undefined)	inconclusive: 12%
COc1ccc(Nc2nnc(Cc3cccnc3)c3ccccc23)c(OC)c1	inactive
COC(=O)c1c(NC(=O)C(C)Oc2ccccc2Br)sc(C)c1C (centres undefined)	inactive
CN(C)CCNC(=O)c1cc2n(n1)CCCN(C(=O)Nc1ccccc1)C2	inconclusive: 11%
COc1ccccc1/C=C1N=C(/C=C/c2ccccc2OC)OC\1=O	active: 37%
CCOC(=O)C1C(=O)C=C(c2cccc(OC)c2)CC1c1cccs1 (centres undefined)	inconclusive: 10%
O=C(CCCc1nc2cccnc2n1Cc1ccc(F)cc1)Nc1ccc(Br)cc1F	inconclusive: 17%
Cc1c(N=C(N)N=C(N)Nc2ccc([N+](=O)[O-])cc2)c(=O)n(-c2ccccc2)n1C	inconclusive: 10%
C=CC(C)(C)c1cc2cc3c(cc2oc1=O)OC(C(C)(C)OC(C)=O)C3 (centres undefined)	inconclusive: 11%
Cn1c(=O)c2cc(S(=O)(=O)N3CCCCC3)ccc2n(C)c1=O	inactive
CN1CCN(Cc2cc(Br)c(O)c3ncccc23)CC1	inconclusive: 26%
CSc1cccc(CN(C(=O)Cc2ccncc2)C(C)C)c1	inconclusive: 11%
O=C1NC(=O)C(c2ccccc2)(c2ccccc2)N1	inactive
CC(=O)c1ccc(OCCn2cnc3c(N)ncnc32)cc1	inactive
CCC(C)NC(=O)C1(C)CCC(=O)N1Cc1cccc(OC)c1 (centres undefined)	inactive
COc1cc(C2NC(C(=O)O)CS2)ccc1C (centres undefined)	inconclusive: 18%
CC(C)=CC(=O)NC1CCCN(Cc2ccc(Cl)cc2)C1 (centres undefined)	inconclusive: 21%
COC(=O)[C@@H]1Cc2ncn(Cc3ccc(Cl)cc3)c2CN1C(=O)C1CCCCC1	inactive
Cc1ccc(NS(=O)(=O)c2ccc(F)cc2)c(C)c1	inactive
Cc1ccc2c(-c3ccc(CN(C)C)cn3)cccc2n1	inactive
COCC(=O)N1CCN(S(=O)(=O)c2ccccc2)C[C@@H]1C(=O)N[C@@H](Cc1ccc(OC)cc1)C(=O)OC	inconclusive: 14%

Of the compounds above, two have fluorine.
SMILES	inhibition
O=C(CCCc1nc2cccnc2n1Cc1ccc(F)cc1)Nc1ccc(Br)cc1F	inconclusive: 17%
Cc1ccc(NS(=O)(=O)c2ccc(F)cc2)c(C)c1	inactive

Next part:

SMILES	inhibition
O=C(CCN1C(=O)c2ccccc2C1=O)Nc1ccccc1O	inactive
Cc1ccc2nc(-c3ccc(N=Cc4ccc5c(c4)OCO5)cc3O)oc2c1	active: 32%
CCCc1ccc(C2CC(=O)Nc3cc4c(cc32)OCO4)o1 (centres undefined)	inconclusive: 11%
CCCCNC(=O)C1(O)c2cc(Br)ccc2NC(=O)N1c1ccc(CC)cc1 (centres undefined)	inactive
CCCC1COCCN1Cc1ccc2ccccc2n1 (centres undefined)	inconclusive: 15%
O=C1N=C(N2CCCC2)S/C1=C/c1cccc(Cl)c1	inconclusive: 20%
O=C(CCC1CCCC1)Nc1ccc(F)cc1	inactive
O=C(O)CN1C(=O)C2CCCCN2c2ccc(C(=O)N3CCCCC3)cc21 (centres undefined)	inconclusive: 19%
O=C1c2ccccc2C(=O)N1Cc1ccccc1	inactive
O=C(C[C@@H]1CCNC[C@@H]1Cc1cc(-c2ccccc2)on1)Nc1ccccc1	inconclusive: 18%
COc1ccc(C)cc1S(=O)(=O)N1CCN(c2nc(C)cc(N3CCCCC3)n2)CC1	inconclusive: 11%
O=C(CN1C(=O)S/C(=C\c2ccc(O)cc2)C1=O)N1CCOCC1	inconclusive: 24%
COCc1cc(C)c2c(N)c(C#N)sc2n1	inconclusive: 14%
NC(=O)CN1CCC=C(CNC(=O)c2ccc(Cl)cc2Cl)C1	inconclusive: 19%
COC(=O)C1C(=O)C2=C(CC1C)NC(C)=C(C(=O)OC1CCCCCC1)C2c1cccs1 (centres undefined)	inactive
O=[N+]([O-])c1ccc(C2SCCN2S(=O)(=O)c2ccc(F)cc2)cc1 (centres undefined)	inactive
CCNC(=O)[C@@H]1C[C@H](N)CN1C(=O)Cc1ccccn1	inactive
CCOc1ccc(C2C(C(=O)OC(C)CC)=C(C)NC3=C2C(=O)C(C(=O)OC)C(C)C3)cc1 (centres undefined)	inactive
COc1cc(CNCc2cc(C)cc3c(C)c(C)[nH]c23)cc2c1OCO2	inconclusive: 20%
Cn1cc(CN2CCN(c3cnccn3)CC2)c(-c2ccc(C3CCCCC3)cc2)n1	inconclusive: 12%
CC1CCC(C(=O)NC(C(=O)Nc2ccc3c(c2)OCO3)C(C)C)CC1 (centres undefined)	inactive
CN(C/C=C/c1ccco1)Cc1nc2ccc(F)cc2[nH]1	inconclusive: 22%
O=C(CN1C(=O)CC(c2ccccc2)=Nc2ccccc21)Nc1ccc(F)cc1	inactive
Cc1ccc(N2CCCS2(=O)=O)cc1NC(=O)c1ccc(Br)o1	inconclusive: 29%
